One assay is described as follows: PubChem AID 1586. The following applies: yeast two-hybrid polyglutamine protein interaction, reporter readout; measured here: averaged growth delta OD.
Assay [1] is described as follows: enhancers of SMN2 over SMN1 splicing, cell-based, SMN2/SMN1 luciferase reporters (AID 1598). The following applies: SMN2 vs SMN1 luciferase splicing reporter cells, at 10 µM; SMN1 luciferase ratio: measured here: SMN1 luciferase reporter average; SMN2 luciferase ratio: measured here: SMN2 luciferase reporter average, stronger effect = higher value.
Assay [2] in a line: protection against mutant huntingtin cytotoxicity, PC12 cells, LDH release (AID 1610). To be noted: PC12 mutant huntingtin toxicity, final LDH at 4 uM, stronger effect = lower value. In general terms: LDH in the medium is a marker of cell lysis.

This is one part of the list. These are further read-outs of the screen, such as a control signal, another cell line or another target. No call is given for them. For some assays here: Most of these compounds were active or inconclusive in the main read-out, so they are no random draw. Numbered stars: 1 amine (or outer) side, 2 acyl side, 3 side chain; on linkers, the order of the positions; unused ones are H or OH. Bridge positions count the residues as written; N and C are the ends. Square brackets hold non-standard residues; d marks the D form. Peptide text beside a SMILES is read from it. * marks the point of attachment. ξ: configuration not given here. ΔAla(Z-3-ureido) = NC(=O)N/C=C(\N)C(=O)O; X2 = NC1=NCCC(C(N[*:1])C(=O)[*:2])N1; ξβ3hOrn = NCCCC(N)CC(=O)*; Dap = NC[CH](N)C(=O)O

In “PubChem AID 1586”, `CC/C(=C(\c1ccccc1)c1ccc(OCCN(C)C)cc1)c1ccccc1` showed a signal change (36 h minus 0 h) of 0.226. Further, in assay [1], the SMN1 luciferase ratio amounted to 0.87 and the SMN2 luciferase ratio turned out to be 0.93. Further, the normalised LDH release in assay [2] stood at 1.11.

In “PubChem AID 1586”, `O=C(O)c1c2ccccc2cc2ccccc12` had a signal change (36 h minus 0 h) of 0.143. Further, in assay [1], the SMN1 luciferase ratio came to 0.9 and the SMN2 luciferase ratio was determined as 0.93. The molecule also showed a normalised LDH release in assay [2] of 0.637.

For `O=C(O)c1ccccc1O`, the signal change (36 h minus 0 h) in the assay “PubChem AID 1586” came to 0.0406. In assay [1], the SMN1 luciferase ratio is 0.99 and the SMN2 luciferase ratio was 1.09. The normalised LDH release in assay [2] is 0.734.

Consider `NCCCC(N)CC(=O)NCC1NC(=O)C(CO)NC(=O)C(N)CNC(=O)C(C2CCN=C(N)N2)NC(=O)/C(=C/NC(N)=O)NC1=O` (stereo not drawn) (H-[Dap]S[Dap](ξβ3hOrn)[ΔAla(Z-3-ureido)][X2]; lactam 1-C; configuration not given here), for which the signal change (36 h minus 0 h) in “PubChem AID 1586” is 0.146. Further, in assay [1], the SMN1 luciferase ratio is 0.92 and the SMN2 luciferase ratio turned out to be 0.92. The normalised LDH release in assay [2] worked out at 1.73.

Molecule `CC(=O)Nc1ccc(OC(=O)c2ccccc2O)cc1` yielded a signal change (36 h minus 0 h) in “PubChem AID 1586” of 0.149. Besides, in assay [1], the SMN1 luciferase ratio turned out to be 0.86 and the SMN2 luciferase ratio was 1.01. Further, the normalised LDH release in assay [2] was determined as 0.444.

In “PubChem AID 1586”, `CNCCc1ccccn1` registered a signal change (36 h minus 0 h) of 0.185. In assay [1], the SMN1 luciferase ratio was 0.92 and the SMN2 luciferase ratio was found to be 0.92. The same molecule had a normalised LDH release in assay [2] of 1.3.

In turn, `NC[C@@H]1O[C@H](O[C@@H]2[C@@H](CO)OC(O[C@@H]3[C@@H](O)[C@H](N)C[C@H](N)[C@H]3OC3O[C@H](CO)[C@@H](O)[C@H](O)[C@H]3N)[C@@H]2O)[C@H](N)[C@@H](O)[C@@H]1O` (stereo partly drawn) had a signal change (36 h minus 0 h) in the assay “PubChem AID 1586” of 0.116. Further, in assay [1], the SMN1 luciferase ratio came out at 0.89 and the SMN2 luciferase ratio worked out at 0.94. Further, the normalised LDH release in assay [2] came to 1.12.

Molecule `O=C(O)CCCCCCCC(=O)O` displayed a signal change (36 h minus 0 h) in the assay “PubChem AID 1586” of 0.203. Moreover, in assay [1], the SMN1 luciferase ratio is 0.85 and the SMN2 luciferase ratio was determined as 1. For the same molecule, in assay [2], the normalised LDH release was found to be 0.712.

Regarding `O=C1CN(/N=C/c2ccc([N+](=O)[O-])o2)C(=O)N1`, the signal change (36 h minus 0 h) in the assay “PubChem AID 1586” stood at 0.0367. In addition, in assay [1], the SMN1 luciferase ratio turned out to be 0.9 and the SMN2 luciferase ratio amounted to 0.96. Further, the normalised LDH release in assay [2] worked out at 0.879.

`N[C@@H]1[C@@H](O)[C@H](O)[C@@H](CO)O[C@H]1O` registered a signal change (36 h minus 0 h) in “PubChem AID 1586” of 0.0361. Also, in assay [1], the SMN1 luciferase ratio came to 0.94 and the SMN2 luciferase ratio was determined as 1.11. Moreover, the normalised LDH release in assay [2] turned out to be 0.922.

In “PubChem AID 1586”, `CCc1cccc2c3c([nH]c12)C(CC)(CC(=O)O)OCC3` (stereo not drawn) returned a signal change (36 h minus 0 h) of 0.112. In addition, in assay [1], the SMN1 luciferase ratio worked out at 0.79 and the SMN2 luciferase ratio was 0.91. Moreover, the normalised LDH release in assay [2] was found to be 0.713.

On to `CCOc1ccc(Cc2nccc3cc(OCC)c(OCC)cc23)cc1OCC`, for which the signal change (36 h minus 0 h) in the assay “PubChem AID 1586” is 0.198. Moreover, in assay [1], the SMN1 luciferase ratio was found to be 1.24 and the SMN2 luciferase ratio came to 0.88. Further, the normalised LDH release in assay [2] stood at 0.872.

As for `CCOc1ccc(NC(C)=O)cc1`, in the assay “PubChem AID 1586”, the signal change (36 h minus 0 h) was 0.159. In addition, in assay [1], the SMN1 luciferase ratio stood at 0.98 and the SMN2 luciferase ratio is 1.02. In assay [2], this molecule came in with a normalised LDH release of 1.35.

For the molecule `CN(C)/N=N/c1nc[nH]c1C(N)=O`, the signal change (36 h minus 0 h) in the assay “PubChem AID 1586” came out at 0.187. For the same molecule, in assay [1], the SMN1 luciferase ratio was determined as 1.01 and the SMN2 luciferase ratio worked out at 0.79. Further, the normalised LDH release in assay [2] worked out at 0.719.

Regarding `Cn1c([N+](=O)[O-])cnc1COC(N)=O`, the signal change (36 h minus 0 h) in the assay “PubChem AID 1586” was 0.128. In addition, in assay [1], the SMN1 luciferase ratio worked out at 0.95 and the SMN2 luciferase ratio is 0.92. The same molecule yielded a normalised LDH release in assay [2] of 0.935.

On to `c1ccc(CC2=NCCN2)cc1`, for which the signal change (36 h minus 0 h) in the assay “PubChem AID 1586” amounted to 0.186. Moreover, in assay [1], the SMN1 luciferase ratio worked out at 0.86 and the SMN2 luciferase ratio came to 0.74. For the same molecule, the normalised LDH release in assay [2] came to 0.951.

Molecule `COc1ccc(CCC(=O)c2c(O)cc(O[C@@H]3O[C@H](CO)C(O)[C@H](O)C3O[C@@H]3O[C@@H](C)[C@H](O)[C@@H](O)[C@H]3O)cc2O)cc1O` (stereo partly drawn) returned a signal change (36 h minus 0 h) in the assay “PubChem AID 1586” of 0.192. Moreover, in assay [1], the SMN1 luciferase ratio was found to be 0.85 and the SMN2 luciferase ratio was found to be 0.91. In assay [2], the normalised LDH release was found to be 0.711.

In the case of `Clc1cc(Cl)c(OCC#CI)cc1Cl`, in the assay “PubChem AID 1586”, the signal change (36 h minus 0 h) came to 0.451. Besides, in assay [1], the SMN1 luciferase ratio was 0.9 and the SMN2 luciferase ratio is 0.92. The normalised LDH release in assay [2] turned out to be 0.645.

For `CC1=C(C(=O)O)N2C(=O)[C@@H](NC(=O)[C@H](N)c3ccc(O)cc3)[C@H]2SC1`, in “PubChem AID 1586”, the signal change (36 h minus 0 h) was 0.164. In assay [1], the SMN1 luciferase ratio was found to be 0.84 and the SMN2 luciferase ratio was 0.93. The molecule also registered a normalised LDH release in assay [2] of 0.574.

`C[N+]1(CCCCC[N+]2(C)CCCC2)CCCC1` returned a signal change (36 h minus 0 h) in “PubChem AID 1586” of 0.0481. Also, in assay [1], the SMN1 luciferase ratio came out at 0.43 and the SMN2 luciferase ratio turned out to be 0.46. The molecule also showed a normalised LDH release in assay [2] of 0.932.

For the molecule `CCC(=O)OCC(=O)C1(OC(=O)CC)C(C)CC2C3CCC4=CC(=O)C=CC4(C)C3(Cl)C(O)CC21C` (stereo not drawn), the signal change (36 h minus 0 h) in “PubChem AID 1586” came to 0.118. Further, in assay [1], the SMN1 luciferase ratio is 0.92 and the SMN2 luciferase ratio turned out to be 0.95. In assay [2], this molecule registered a normalised LDH release of 0.661.

With `CN(C(=O)CN(CCO)CC(=O)N(C)C(C)(C)Cc1ccccc1)C(C)(C)Cc1ccccc1`, the signal change (36 h minus 0 h) in the assay “PubChem AID 1586” was determined as 0.186. Besides, in assay [1], the SMN1 luciferase ratio amounted to 0.84 and the SMN2 luciferase ratio turned out to be 0.8. Further, in assay [2], the normalised LDH release worked out at 0.87.

Turning to `COc1ccccc1OCC(O)CO` (stereo not drawn), the signal change (36 h minus 0 h) in the assay “PubChem AID 1586” was found to be 0.165. Further, in assay [1], the SMN1 luciferase ratio amounted to 0.89 and the SMN2 luciferase ratio was 0.88. Moreover, in assay [2], the normalised LDH release turned out to be 0.884.

As to `COc1ccc(CN(CCN(C)C)c2ccccn2)cc1`, the signal change (36 h minus 0 h) in “PubChem AID 1586” worked out at 0.246. Moreover, in assay [1], the SMN1 luciferase ratio was determined as 0.85 and the SMN2 luciferase ratio amounted to 0.96. This molecule also gave a normalised LDH release in assay [2] of 0.829.

Turning to `NC(COCc1ccccc1)C(=O)O` (stereo not drawn), the signal change (36 h minus 0 h) in “PubChem AID 1586” was determined as 0.113. Further, in assay [1], the SMN1 luciferase ratio was 0.85 and the SMN2 luciferase ratio was found to be 0.85. This molecule also returned a normalised LDH release in assay [2] of 0.916.

Take `C[N+]12CCC(CC1)C(OC(=O)C(O)(c1ccccc1)c1ccccc1)C2` (stereo not drawn): the signal change (36 h minus 0 h) in “PubChem AID 1586” amounted to 0.109. Besides, in assay [1], the SMN1 luciferase ratio came out at 0.88 and the SMN2 luciferase ratio came to 0.97. The molecule also yielded a normalised LDH release in assay [2] of 0.891.

`COc1ccc2cc(CCC(C)=O)ccc2c1`: the signal change (36 h minus 0 h) in “PubChem AID 1586” is 0.13. In assay [1], the SMN1 luciferase ratio was 1.39 and the SMN2 luciferase ratio came to 1.36. In assay [2], this molecule yielded a normalised LDH release of 0.768.

With `CC(=O)CCC1C2=NC(=C\C3=NC(=C(/C)C4=NC(C)(C5[N-]/C(=C\2C)C(C)(CCC(=O)NCC(C)OP(=O)(O)O[C@@H]2[C@@H](CO)OC(n6cnc7cc(C)c(C)cc76)[C@@H]2O)C5CC(N)=O)C(C)(CC(N)=O)C4CCC(N)=O)/C(C)(CC(N)=O)C3CCC(N)=O)/C1(C)C.[CH2-][C@H]1OC(n2cnc3c(N)ncnc32)[C@H](O)[C@@H]1O.[Co+2]` (stereo partly drawn), the signal change (36 h minus 0 h) in the assay “PubChem AID 1586” was 0.176. For the same molecule, in assay [1], the SMN1 luciferase ratio was 0.97 and the SMN2 luciferase ratio was 1.07. The normalised LDH release in assay [2] came to 0.561.

In the case of `Cc1ccc(N(CC2=NCCN2)c2cccc(O)c2)cc1`, the signal change (36 h minus 0 h) in “PubChem AID 1586” was 0.0961. In assay [1], the SMN1 luciferase ratio turned out to be 0.93 and the SMN2 luciferase ratio is 0.89. The normalised LDH release in assay [2] was 0.948.

In turn, `NS(=O)(=O)c1cc(C(=O)O)c(NCc2ccco2)cc1Cl` came in with a signal change (36 h minus 0 h) in “PubChem AID 1586” of 0.162. For the same molecule, in assay [1], the SMN1 luciferase ratio was 0.91 and the SMN2 luciferase ratio stood at 0.99. In assay [2], the normalised LDH release is 1.04.

On to `CC(CN1c2ccccc2Sc2ccccc21)N(C)C` (stereo not drawn), for which, in “PubChem AID 1586”, the signal change (36 h minus 0 h) was found to be 0.153. In assay [1], the SMN1 luciferase ratio was determined as 0.76 and the SMN2 luciferase ratio is 0.71. Further, the normalised LDH release in assay [2] was determined as 0.903.

With `O=c1[nH]c(=O)n(C2C[C@@H](O)[C@@H](CO)O2)cc1F` (stereo partly drawn), in the assay “PubChem AID 1586”, the signal change (36 h minus 0 h) was 0.173. Also, in assay [1], the SMN1 luciferase ratio was 0.44 and the SMN2 luciferase ratio is 0.54. In assay [2], this molecule displayed a normalised LDH release of 0.724.

The record behind these values is PubChem BioAssay.
